Laboratory results: patent US10648012B2, “Assay for inhibitors of equilibrative or concentrative nucleoside transporters” (ALBERT EINSTEIN COLLEGE OF MEDICINE OF YESHIVA UNIVERSITY, priority 2013, dated 2020)
Some results were stated once for a whole list of compounds, not compound by compound.

Biological target: T1, PfENT1 (Plasmodium falciparum, UniProt Q8IDM6)
T1 sequence (Q8IDM6 1-422): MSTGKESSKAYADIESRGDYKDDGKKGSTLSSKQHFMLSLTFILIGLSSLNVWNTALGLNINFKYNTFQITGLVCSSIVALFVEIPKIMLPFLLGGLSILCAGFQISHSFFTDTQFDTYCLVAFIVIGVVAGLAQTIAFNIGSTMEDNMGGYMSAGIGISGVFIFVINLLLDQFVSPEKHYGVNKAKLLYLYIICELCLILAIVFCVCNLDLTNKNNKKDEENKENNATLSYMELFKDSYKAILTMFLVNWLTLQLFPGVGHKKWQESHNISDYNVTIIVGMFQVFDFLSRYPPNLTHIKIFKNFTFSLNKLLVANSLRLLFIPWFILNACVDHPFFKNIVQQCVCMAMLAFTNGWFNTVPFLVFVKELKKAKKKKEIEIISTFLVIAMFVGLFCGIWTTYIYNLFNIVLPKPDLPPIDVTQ
Test: Library screen: rescue of growth of PfENT1-expressing fui1Δ yeast in the presence of 5-FUrd
Format: cell-based
Details: 176 compound library, compounds 25 μM, 125 μM 5-FUrd/well, 16 hrs of growth

Compound | OD600 relative to the “no compound” control
Nc1nc2nc[nH]c2c(=O)[nH]1 [guanine] | > 5 SD of the “no compound” control
OC[C@H]1O[C@@H](n2cnc3c(O)ncnc32)[C@H](O)[C@@H]1O [inosine] | > 5 SD of the “no compound” control
